Results are given in words; binding and its absence hold for the method and conditions named. In cells and extracts the contact can be indirect. A yes stands for co-enrichment or nearness to the bait. Other partners may have been found.

Sequences of proteins named here, by UniProt entry; tags and fusion partners are left off.
UniProt O15372: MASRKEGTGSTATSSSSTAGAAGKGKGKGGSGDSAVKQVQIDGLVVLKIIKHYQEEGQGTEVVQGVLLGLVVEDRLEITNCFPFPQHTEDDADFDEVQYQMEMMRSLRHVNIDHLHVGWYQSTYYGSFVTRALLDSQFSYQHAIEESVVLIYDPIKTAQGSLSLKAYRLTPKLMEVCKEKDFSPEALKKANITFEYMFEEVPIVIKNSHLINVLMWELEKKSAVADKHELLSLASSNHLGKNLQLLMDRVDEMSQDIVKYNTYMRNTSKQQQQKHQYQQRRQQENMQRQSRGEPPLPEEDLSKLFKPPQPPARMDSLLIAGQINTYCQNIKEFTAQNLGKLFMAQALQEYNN
UniProt P60228: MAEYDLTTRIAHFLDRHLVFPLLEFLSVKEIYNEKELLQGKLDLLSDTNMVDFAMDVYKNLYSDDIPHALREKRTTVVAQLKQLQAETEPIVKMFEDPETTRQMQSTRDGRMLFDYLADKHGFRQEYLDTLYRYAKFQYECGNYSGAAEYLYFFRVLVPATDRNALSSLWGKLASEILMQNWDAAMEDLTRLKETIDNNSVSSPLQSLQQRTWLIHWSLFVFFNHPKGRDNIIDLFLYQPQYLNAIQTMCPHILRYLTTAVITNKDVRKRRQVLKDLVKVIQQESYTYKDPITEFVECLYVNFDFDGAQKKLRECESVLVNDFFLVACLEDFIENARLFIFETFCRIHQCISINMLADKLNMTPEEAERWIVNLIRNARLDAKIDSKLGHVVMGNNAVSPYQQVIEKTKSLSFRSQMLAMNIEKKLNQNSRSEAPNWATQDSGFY
UniProt Q9Y297: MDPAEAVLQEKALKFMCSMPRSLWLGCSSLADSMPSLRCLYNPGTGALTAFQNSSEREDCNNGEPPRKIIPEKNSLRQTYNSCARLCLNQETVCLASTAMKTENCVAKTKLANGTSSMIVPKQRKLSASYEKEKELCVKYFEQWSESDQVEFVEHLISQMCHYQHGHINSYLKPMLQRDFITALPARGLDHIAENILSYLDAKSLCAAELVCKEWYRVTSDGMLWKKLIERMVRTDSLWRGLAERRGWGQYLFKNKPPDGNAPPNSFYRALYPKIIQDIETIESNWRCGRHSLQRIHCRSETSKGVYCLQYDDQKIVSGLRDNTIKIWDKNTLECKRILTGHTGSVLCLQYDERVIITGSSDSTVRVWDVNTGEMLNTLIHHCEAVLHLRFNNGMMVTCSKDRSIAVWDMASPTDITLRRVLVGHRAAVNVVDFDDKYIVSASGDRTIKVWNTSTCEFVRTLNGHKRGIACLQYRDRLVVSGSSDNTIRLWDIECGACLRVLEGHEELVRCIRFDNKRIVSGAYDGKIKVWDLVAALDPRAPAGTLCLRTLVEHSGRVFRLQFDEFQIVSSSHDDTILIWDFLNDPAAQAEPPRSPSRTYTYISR

We go through 4 substances from publication PMC10957977.

The target in experiment [1] is Flag-tagged EIF3H (stably expressed in HCT116) (UniProt O15372). The experiment is described as follows: affinity purification with mass spectrometry; HCT116 cells stably expressing Flag-tagged EIF3H or HAX1, lysed in NP-40 buffer; anti-Flag M2 beads; eluate on SDS-PAGE, LC-MS/MS.
Experiment [2] deals with Flag-tagged HAX1 (stably expressed in HCT116) (UniProt O00165). Described as above.

Take “EIF3E, endogenous in HCT116 (from UniProt P60228 1-445)”: the binding entry in experiment [1] was “binds”.
In the case of “HAX1 (HS1 associated protein X-1), endogenous in HCT116 (from UniProt O00165 1-279)”, the binding entry in experiment [1] was “binds”.
With “RAF1, endogenous in HCT116 (from UniProt P04049 1-648)”, in experiment [2], the binding result is reported as “binds”.
Take “βTrCP, endogenous in HCT116 (from UniProt Q9Y297 1-605)”: the binding result in experiment [2] was “binds”.
